This is an account of results in patent US20220308056A1.

Chains of the proteins cited; added tags and fusions are not shown. Lines headed by an entry give the natural chain unless they say otherwise; changes in a name come on top.
UniProt O00187: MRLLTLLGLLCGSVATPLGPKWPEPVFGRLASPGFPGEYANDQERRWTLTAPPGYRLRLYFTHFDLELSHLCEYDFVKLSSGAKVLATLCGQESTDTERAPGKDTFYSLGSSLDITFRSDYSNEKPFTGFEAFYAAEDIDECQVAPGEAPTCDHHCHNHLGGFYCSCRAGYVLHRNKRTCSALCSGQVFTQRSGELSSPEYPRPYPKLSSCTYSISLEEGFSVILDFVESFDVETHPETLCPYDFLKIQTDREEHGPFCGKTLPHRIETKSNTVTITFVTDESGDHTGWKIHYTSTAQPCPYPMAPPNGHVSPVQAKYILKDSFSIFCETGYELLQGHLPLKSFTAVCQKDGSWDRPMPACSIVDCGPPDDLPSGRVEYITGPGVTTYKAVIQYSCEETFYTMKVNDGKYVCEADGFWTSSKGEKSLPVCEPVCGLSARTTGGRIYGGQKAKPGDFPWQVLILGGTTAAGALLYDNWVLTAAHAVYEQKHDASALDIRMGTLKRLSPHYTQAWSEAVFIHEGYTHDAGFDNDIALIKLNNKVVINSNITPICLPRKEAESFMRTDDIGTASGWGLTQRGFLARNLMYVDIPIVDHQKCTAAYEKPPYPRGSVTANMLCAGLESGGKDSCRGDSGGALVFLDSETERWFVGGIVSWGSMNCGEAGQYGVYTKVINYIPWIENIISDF

No constants are given. Whether binding was seen depends on the method and setting. Some results given as binding are weak or reduced against the parent protein; the word gives no strength.

For this experiment, the target named is T1, C1 esterase inhibitor (Sigma E0518, from human plasma), MW 105,000 (human) (UniProt P05155).
T1 sequence: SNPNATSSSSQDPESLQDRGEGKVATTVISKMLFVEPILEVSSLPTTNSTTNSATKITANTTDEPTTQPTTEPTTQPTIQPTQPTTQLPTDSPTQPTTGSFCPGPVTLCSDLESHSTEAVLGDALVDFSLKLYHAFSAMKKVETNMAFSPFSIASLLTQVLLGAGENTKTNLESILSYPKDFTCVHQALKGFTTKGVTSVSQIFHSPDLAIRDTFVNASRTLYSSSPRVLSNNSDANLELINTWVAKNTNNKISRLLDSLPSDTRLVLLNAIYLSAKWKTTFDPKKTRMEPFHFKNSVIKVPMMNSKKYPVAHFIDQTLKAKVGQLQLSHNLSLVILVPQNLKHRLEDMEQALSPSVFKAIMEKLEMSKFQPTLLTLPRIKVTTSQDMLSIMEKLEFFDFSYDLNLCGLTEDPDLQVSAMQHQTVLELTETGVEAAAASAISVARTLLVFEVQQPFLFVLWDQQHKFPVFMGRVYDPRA
Nature of the experiment: mixing at molar ratio 1:1.5, 60 min 37° C, size exclusion chromatography and non-reducing gel. For orientation: Size exclusion chromatography separates by hydrodynamic size, large species first.

Consider “human MASP-2 CCP1/CCP2/SP6His (MW 43,740) (from UniProt O00187 298-686) (enzyme)”, for which the binding entry is “binds”.
